In publication PMC12324116:
No constants are given. Whether binding was seen depends on the method and setting. Some binding calls cover weakened binding; strength is not graded here.

Sequences of proteins named here, by UniProt entry; tags and fusion partners are left off.
UniProt A0ACD7PPF0: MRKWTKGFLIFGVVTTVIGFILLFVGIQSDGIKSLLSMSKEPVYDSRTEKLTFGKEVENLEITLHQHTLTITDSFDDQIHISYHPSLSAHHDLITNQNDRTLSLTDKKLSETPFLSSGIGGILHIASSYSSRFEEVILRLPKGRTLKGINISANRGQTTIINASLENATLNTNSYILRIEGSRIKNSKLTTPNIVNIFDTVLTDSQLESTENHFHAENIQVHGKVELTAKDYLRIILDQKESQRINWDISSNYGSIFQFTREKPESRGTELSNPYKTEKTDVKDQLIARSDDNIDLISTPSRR

Key:
[1] = molecular target: PtvA, T25 fusion from pKT25 (Streptococcus pneumoniae); assay: two-hybrid; bacterial adenylate cyclase-based two-hybrid (BATCH), T25 and T18 fusions co-expressed in E. coli BTH101; colony colour on MacConkey/maltose plates with 0.5 mM IPTG for 4-8 days and beta-galactosidase activity
[2] = molecular target: T25-PtvB (Streptococcus pneumoniae); assay: as above

With “PtvB with T18 fused to the N-terminal (from UniProt A0ACD7PPF0 1-303)” the binding [1] was “no binding”.

“PtvC with T18 fused to the N-terminal (from UniProt A0ACD7PPC1 1-354)” was tested, and the binding [2] was “binds”.
